Source: article PMC10337483 (Biochemistry, 2022)

Biological target: T1, CYP2J2 (Homo sapiens, UniProt P51589)
T1 sequence (P51589 1-502): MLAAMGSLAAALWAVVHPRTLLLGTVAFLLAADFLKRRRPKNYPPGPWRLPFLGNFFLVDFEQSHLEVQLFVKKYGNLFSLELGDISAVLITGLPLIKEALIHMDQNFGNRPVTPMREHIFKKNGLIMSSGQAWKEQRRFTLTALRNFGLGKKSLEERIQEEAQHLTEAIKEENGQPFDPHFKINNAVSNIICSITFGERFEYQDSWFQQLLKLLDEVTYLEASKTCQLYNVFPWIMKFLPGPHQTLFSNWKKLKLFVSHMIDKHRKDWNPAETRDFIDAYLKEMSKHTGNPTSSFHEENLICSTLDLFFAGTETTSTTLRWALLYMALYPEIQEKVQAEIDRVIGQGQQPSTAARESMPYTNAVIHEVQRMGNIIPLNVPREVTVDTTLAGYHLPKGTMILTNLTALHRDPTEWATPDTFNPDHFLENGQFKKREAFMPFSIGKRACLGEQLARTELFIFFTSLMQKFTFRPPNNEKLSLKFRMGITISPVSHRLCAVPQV
Assay: Spectral
Settings: presence versus absence of CBG

CC(C)(C)c1ccc(C(=O)CCCN2CCC(OC(c3ccccc3)c3ccccc3)CC2)cc1 [EBS, ebastine] was tested, and the “increase of Ks of EBS on binding to CYP2J2-CBG bound complex” value was ~ 4 fold.
